This is one part of the list.
What was measured:
Experiment in all cases: log2 fold change, soluble protein after heating vs DMSO (PISA); higher = thermal stabilisation; K562 lysate, 10 uM; active = over 0.2 and 3.5 SD of the protein, either way, in both replicates (recomputed)
[1] = compound: Cc1cn(-c2cc(NC(=O)c3ccc(C)c(Nc4nccc(-c5cccnc5)n4)c3)cc(C(F)(F)F)c2)cn1 [nilotinib]
How it was run: (§1)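 Following dounce homogenisation of K562 pellets in PBS pH 7.4 with 1 mM MgCl2, crude extract at 1 mg/mL protein was incubated for 30 min with 10 μM compound. Aliquots were then heated for 3 min over 48°C-58°C and pooled, NP-40 was added to 0.5% at 4°C, and soluble protein was recovered as the supernatant at 21,000xg for 90 min. Channel-sum-equalised TMTpro 16plex LC-MS/MS quantified this protein. Each value, from duplicates, is a log-two fold change in thermal stability relative to solvent controls.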

By UniProt entry, the sequences of proteins in these tests, tags left out. Where a name states a change or a piece, a line headed by the entry shows the natural chain unless it says otherwise.
UniProt Q9UKJ3: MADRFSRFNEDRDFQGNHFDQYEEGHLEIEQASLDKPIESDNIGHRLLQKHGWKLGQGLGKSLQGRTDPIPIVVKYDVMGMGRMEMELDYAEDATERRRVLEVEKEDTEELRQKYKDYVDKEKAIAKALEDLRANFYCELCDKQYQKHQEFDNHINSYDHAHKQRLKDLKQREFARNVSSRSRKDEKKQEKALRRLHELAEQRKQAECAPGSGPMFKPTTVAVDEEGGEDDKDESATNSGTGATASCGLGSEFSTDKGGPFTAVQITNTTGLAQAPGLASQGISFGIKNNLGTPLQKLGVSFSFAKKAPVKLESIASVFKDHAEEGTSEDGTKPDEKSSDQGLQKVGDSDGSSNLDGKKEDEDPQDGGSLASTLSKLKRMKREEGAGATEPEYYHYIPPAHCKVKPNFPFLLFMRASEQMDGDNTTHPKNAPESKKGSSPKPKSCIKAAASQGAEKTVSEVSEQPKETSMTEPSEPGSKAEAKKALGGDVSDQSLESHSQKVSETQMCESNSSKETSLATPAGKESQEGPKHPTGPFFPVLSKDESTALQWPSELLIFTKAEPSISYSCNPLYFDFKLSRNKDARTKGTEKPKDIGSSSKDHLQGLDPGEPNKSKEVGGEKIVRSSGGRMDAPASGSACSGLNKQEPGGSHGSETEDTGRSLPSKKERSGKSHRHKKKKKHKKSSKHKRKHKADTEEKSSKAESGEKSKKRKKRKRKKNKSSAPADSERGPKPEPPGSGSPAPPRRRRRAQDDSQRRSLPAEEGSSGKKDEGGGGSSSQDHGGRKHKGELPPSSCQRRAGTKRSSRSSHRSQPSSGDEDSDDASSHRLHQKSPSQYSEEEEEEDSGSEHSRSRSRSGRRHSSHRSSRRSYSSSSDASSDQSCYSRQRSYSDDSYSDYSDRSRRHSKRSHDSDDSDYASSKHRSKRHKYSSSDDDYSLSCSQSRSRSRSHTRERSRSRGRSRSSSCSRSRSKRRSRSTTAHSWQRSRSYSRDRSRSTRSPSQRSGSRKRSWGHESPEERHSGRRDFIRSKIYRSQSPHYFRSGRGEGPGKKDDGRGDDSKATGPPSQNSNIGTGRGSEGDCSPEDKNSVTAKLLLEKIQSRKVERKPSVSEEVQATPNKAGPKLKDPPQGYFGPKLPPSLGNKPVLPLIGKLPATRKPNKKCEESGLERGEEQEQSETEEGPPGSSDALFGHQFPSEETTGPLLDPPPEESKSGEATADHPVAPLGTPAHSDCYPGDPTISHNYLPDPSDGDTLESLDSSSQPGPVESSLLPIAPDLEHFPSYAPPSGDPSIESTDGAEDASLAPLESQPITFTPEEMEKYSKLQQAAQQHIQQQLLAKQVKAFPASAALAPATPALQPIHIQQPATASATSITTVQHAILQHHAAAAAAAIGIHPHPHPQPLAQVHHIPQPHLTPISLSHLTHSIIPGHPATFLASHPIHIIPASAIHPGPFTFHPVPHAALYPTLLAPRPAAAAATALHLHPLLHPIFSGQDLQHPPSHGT
UniProt Q9UHW5, whole entry, looked up: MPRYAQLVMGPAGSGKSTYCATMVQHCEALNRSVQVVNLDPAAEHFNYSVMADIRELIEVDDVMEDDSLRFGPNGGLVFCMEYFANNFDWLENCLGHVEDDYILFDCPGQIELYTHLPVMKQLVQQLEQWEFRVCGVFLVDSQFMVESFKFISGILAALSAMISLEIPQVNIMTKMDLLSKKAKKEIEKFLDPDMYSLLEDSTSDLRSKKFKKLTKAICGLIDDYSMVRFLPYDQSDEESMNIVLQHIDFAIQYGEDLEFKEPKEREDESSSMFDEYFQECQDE
UniProt Q9BRX5: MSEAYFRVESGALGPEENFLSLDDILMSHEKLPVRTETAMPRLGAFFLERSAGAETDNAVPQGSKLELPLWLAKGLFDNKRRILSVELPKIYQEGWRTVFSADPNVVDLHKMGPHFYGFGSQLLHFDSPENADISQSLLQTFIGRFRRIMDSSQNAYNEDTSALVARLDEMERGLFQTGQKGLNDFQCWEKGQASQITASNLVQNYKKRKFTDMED
UniProt Q08378: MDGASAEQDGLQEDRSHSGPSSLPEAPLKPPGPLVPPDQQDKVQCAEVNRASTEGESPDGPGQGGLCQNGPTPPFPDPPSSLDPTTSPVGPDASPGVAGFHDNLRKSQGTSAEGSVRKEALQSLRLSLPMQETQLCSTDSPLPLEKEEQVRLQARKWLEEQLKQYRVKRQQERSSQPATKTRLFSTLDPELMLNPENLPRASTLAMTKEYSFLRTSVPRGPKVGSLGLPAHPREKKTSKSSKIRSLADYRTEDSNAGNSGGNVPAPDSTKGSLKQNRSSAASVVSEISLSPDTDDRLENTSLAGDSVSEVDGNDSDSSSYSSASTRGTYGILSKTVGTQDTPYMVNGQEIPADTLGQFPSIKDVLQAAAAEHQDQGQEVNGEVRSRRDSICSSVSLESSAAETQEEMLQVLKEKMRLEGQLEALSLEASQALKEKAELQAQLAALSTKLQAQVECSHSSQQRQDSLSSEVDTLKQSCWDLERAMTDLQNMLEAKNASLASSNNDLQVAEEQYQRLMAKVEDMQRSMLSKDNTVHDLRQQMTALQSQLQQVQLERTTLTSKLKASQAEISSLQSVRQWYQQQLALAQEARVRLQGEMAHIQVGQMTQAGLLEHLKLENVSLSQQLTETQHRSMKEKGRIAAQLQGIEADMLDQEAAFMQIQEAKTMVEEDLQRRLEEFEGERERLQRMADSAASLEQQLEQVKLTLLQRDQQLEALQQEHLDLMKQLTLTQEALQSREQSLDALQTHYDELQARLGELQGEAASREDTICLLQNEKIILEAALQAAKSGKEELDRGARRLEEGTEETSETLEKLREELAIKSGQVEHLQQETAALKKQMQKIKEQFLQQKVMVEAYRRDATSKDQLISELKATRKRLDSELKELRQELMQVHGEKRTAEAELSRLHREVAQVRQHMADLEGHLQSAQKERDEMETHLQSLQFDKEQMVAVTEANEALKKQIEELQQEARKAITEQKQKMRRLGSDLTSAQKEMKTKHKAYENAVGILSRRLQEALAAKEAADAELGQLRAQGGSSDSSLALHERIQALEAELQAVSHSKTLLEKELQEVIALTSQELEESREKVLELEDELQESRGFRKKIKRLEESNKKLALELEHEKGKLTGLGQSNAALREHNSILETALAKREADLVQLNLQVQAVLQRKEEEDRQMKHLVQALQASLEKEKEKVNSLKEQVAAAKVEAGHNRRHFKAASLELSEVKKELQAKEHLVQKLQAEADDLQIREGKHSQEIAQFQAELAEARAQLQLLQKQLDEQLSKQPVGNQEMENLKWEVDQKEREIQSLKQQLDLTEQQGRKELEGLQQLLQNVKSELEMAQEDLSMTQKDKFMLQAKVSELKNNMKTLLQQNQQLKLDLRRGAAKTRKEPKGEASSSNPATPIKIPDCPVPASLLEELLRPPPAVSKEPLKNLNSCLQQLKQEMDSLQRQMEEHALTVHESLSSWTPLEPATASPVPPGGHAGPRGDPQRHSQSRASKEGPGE
UniProt Q14344, whole entry, looked up: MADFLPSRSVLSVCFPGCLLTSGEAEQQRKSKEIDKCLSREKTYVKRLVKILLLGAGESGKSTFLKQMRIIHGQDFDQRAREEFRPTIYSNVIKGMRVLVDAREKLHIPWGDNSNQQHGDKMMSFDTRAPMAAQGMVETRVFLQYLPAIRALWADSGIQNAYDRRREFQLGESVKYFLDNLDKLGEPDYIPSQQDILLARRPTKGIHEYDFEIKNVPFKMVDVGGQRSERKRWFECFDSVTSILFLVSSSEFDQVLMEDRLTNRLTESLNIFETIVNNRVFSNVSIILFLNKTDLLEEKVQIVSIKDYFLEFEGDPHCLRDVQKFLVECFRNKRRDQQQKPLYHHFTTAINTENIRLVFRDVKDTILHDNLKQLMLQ
UniProt Q9BQQ3: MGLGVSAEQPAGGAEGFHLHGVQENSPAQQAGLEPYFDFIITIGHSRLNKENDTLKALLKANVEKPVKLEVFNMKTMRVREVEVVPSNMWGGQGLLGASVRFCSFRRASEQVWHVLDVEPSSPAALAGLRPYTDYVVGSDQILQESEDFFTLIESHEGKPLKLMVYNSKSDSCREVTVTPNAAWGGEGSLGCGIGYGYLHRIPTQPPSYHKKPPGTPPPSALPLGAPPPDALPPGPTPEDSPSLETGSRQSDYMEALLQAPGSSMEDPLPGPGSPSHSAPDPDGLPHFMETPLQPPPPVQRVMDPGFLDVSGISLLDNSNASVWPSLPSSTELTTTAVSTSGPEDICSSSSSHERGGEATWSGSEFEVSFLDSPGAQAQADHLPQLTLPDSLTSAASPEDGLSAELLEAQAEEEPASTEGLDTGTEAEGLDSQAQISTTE
UniProt Q9Y223: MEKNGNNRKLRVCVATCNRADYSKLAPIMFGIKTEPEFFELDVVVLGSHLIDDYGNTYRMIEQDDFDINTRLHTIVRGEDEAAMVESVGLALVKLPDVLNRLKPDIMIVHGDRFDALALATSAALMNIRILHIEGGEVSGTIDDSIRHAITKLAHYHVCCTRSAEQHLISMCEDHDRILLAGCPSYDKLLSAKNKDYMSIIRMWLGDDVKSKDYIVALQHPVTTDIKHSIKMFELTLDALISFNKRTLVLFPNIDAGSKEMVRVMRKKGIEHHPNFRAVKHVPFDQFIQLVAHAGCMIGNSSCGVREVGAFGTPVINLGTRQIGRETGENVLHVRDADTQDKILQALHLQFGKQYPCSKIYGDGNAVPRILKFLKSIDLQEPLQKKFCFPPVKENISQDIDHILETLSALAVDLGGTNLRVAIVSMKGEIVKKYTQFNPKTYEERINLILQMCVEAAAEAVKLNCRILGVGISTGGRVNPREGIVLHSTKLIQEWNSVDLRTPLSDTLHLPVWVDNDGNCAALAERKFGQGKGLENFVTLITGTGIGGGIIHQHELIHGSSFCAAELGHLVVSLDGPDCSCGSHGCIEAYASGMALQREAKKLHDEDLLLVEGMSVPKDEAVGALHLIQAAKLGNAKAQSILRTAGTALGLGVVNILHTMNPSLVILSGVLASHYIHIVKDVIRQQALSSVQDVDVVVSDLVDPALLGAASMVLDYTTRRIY
UniProt O43292: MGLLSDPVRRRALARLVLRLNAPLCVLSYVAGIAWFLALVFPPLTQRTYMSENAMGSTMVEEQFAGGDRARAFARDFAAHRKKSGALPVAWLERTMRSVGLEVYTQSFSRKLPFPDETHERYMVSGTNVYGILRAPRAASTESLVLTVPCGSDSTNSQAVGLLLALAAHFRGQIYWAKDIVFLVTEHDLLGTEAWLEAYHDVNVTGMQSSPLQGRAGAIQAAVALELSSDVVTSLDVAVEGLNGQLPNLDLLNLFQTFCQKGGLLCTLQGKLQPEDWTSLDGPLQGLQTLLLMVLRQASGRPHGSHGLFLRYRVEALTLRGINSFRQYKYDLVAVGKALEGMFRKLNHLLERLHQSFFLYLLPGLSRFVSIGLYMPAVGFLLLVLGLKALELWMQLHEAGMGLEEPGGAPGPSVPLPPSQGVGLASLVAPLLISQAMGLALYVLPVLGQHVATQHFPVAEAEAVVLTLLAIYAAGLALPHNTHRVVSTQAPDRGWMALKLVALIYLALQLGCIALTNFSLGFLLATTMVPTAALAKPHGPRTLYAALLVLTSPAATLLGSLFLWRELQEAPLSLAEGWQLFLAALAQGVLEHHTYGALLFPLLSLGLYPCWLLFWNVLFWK
UniProt Q92990: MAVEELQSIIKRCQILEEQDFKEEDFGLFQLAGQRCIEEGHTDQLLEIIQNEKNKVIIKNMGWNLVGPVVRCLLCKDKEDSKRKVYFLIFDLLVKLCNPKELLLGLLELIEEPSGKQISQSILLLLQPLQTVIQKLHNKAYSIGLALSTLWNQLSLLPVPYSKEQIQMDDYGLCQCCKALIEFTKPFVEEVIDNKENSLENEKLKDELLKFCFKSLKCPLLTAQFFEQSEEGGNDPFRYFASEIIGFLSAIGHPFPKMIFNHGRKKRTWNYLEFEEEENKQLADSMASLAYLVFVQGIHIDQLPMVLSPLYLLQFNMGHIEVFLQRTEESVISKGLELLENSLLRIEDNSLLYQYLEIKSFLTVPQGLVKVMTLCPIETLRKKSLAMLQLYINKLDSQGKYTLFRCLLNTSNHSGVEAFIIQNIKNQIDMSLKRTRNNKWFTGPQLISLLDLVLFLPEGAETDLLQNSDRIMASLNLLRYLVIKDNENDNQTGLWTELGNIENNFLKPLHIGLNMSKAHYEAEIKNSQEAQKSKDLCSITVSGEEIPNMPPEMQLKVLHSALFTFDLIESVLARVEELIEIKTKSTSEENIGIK
UniProt Q8IXQ4: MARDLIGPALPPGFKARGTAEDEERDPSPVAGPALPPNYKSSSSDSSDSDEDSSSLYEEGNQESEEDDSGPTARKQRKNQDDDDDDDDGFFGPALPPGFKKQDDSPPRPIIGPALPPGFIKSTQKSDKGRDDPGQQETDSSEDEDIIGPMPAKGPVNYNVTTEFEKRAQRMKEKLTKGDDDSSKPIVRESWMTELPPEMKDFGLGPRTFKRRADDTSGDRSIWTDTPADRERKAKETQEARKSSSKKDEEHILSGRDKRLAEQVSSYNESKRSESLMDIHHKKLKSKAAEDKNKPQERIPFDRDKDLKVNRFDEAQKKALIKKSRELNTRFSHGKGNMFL

[2] = compound: Cc1nc(Nc2n[nH]c3c2CN(C(=O)N[C@H](CN(C)C)c2ccccc2)C3(C)C)c2sccc2n1
How it was run: as §1

[3] = compound: Cc1nc(Nc2ncc(C(=O)Nc3c(C)cccc3Cl)s2)cc(N2CCN(CCO)CC2)n1 [dasatinib]
How it was run: as §1

[4] = compound: Cc1ncc(-c2ccnc(Nc3ccc(S(C)(=O)=O)cc3)n2)n1C(C)C
How it was run: as §1

[5] = compound: Cn1cc(-c2ccc3c(c2)CCN3C(=O)Cc2cccc(C(F)(F)F)c2)c2c(N)ncnc21
How it was run: as §1

[6] = compound: Cn1cc(CNCC2CCN(c3ncc(C(=O)NO)cn3)CC2)c2ccccc21 [quisinostat]
How it was run: as §1

[7] = compound: Cn1cncc1[C@@](N)(c1ccc(Cl)cc1)c1ccc2c(c1)c(-c1cccc(Cl)c1)cc(=O)n2C [tipifarnib]
How it was run: as §1

[8] = compound: NC(=O)Nc1cc(-c2cccc(F)c2)sc1C(=O)N[C@H]1CCCNC1
How it was run: as §1

[9] = compound: NC(=O)c1cnc(N[C@@H]2CCCC[C@@H]2N)nc1Nc1cccc(-n2nccn2)c1
How it was run: as §1

[10] = compound: NC1(c2ccc(-c3nc4ccn5c(=O)[nH]nc5c4cc3-c3ccccc3)cc2)CCC1
How it was run: as §1

[11] = compound: NCC(=O)Nc1ccc(-n2nc(C(F)(F)F)cc2-c2ccc3c(ccc4ccccc43)c2)cc1
How it was run: as §1

[12] = compound: O=C(CCCCCCC(=O)Nc1ccccc1)NO [vorinostat]
How it was run: as §1

[13] = compound: O=C(O)c1ccc2c(c1)nc(Nc1cccc(Cl)c1)c1ccncc12 [silmitasertib]
How it was run: as §1

[14] = compound: O=C1NC(=O)C(c2cnc3ccccn23)=C1c1cn2c3c(cc(F)cc13)CN(C(=O)N1CCCCC1)CC2
How it was run: as §1

[15] = compound: c1cn2cc(-c3ccc4cn[nH]c4c3)nc(Nc3ccc(N4CCOCC4)cc3)c2n1 [entospletinib]
How it was run: as §1

Measured: log2 fold change

GLUD2 (UniProt P49448)
inactive: [1] 0.053 | [2] -0.067 | [3] 0.013 | [4] -0.003 | [5] -0.017 | [6] 0.039 | [7] 0.047 | [8] 0.015 | [9] 0.012 | [10] -0.004 | [12] 0.096 | [13] 0.022 | [14] 0.026 | [15] -0.084
active: [11] 0.297

GMPPA (UniProt Q96IJ6)
inactive: [1] 0.006 | [2] -0.005 | [3] -0.085 | [4] -0.01 | [5] 0.023 | [6] -0.105 | [7] -0.013 | [8] 0.048 | [9] 0.033 | [10] -0.047 | [11] -0.022 | [12] -0.01 | [13] -0.025 | [14] -0.001 | [15] -0.04

GPATCH8 (UniProt Q9UKJ3)
inactive: [1] -0.016 | [2] -0.005 | [3] -0.021 | [4] -0.009 | [5] -0.014 | [6] 0.047 | [7] -0.094 | [8] -0.026 | [9] 0.012 | [10] 0.046 | [11] 0.066 | [12] -0.041 | [13] 0 | [14] 0.03 | [15] 0.006

GLE1 (UniProt Q53GS7)
inactive: [1] 0.073 | [2] -0.052 | [3] 0.007 | [4] -0.075 | [5] -0.039 | [6] -0.007 | [7] -0.054 | [8] 0.153 | [9] 0.085 | [10] -0.098 | [11] 0.002 | [12] -0.167 | [13] 0.095 | [14] 0.04 | [15] -0.014

GON4L (UniProt Q3T8J9)
inactive: [1] 0.003 | [2] 0.012 | [3] 0.025 | [4] 0.067 | [5] 0.041 | [6] -0.061 | [7] -0.01 | [8] 0.019 | [9] -0.02 | [10] 0.022 | [11] -0.051 | [12] -0.162 | [13] 0.066 | [14] -0.076 | [15] 0.067

GPN3 isoform 2 (UniProt Q9UHW5)
inactive: [1] -0.07 | [2] -0.002 | [3] 0.058 | [4] 0.002 | [5] -0.052 | [6] -0.041 | [7] -0.038 | [8] 0.008 | [9] 0.025 | [10] -0.048 | [11] 0.059 | [12] 0.037 | [13] 0.023 | [14] 0.008 | [15] 0.082

GLRX5 (UniProt Q86SX6)
inactive: [1] 0.051 | [2] 0.007 | [3] 0.06 | [4] 0.065 | [5] 0.017 | [6] -0.03 | [7] 0.022 | [8] -0.089 | [9] -0.075 | [10] 0.027 | [11] -0.005 | [12] -0.087 | [13] 0.062 | [14] -0.081 | [15] -0.087

GINS3 (UniProt Q9BRX5)
inactive: [1] 0.023 | [2] 0.009 | [3] -0.029 | [4] -0.083 | [5] 0.032 | [6] 0.027 | [7] 0.029 | [8] 0.007 | [9] 0 | [10] 0.081 | [11] -0.054 | [12] -0.078 | [13] 0.058 | [14] -0.025 | [15] 0.004

GOLGA3 (UniProt Q08378)
inactive: [1] 0 | [2] -0.016 | [3] -0.02 | [4] 0.002 | [5] 0.008 | [6] -0.019 | [7] -0.021 | [8] -0.012 | [9] -0.002 | [10] -0.005 | [11] 0.003 | [12] 0.029 | [13] -0.007 | [14] 0.003 | [15] -0.005

GNA13 (UniProt Q14344)
inactive: [1] 0.007 | [2] -0.01 | [3] -0.002 | [4] -0.031 | [5] 0.02 | [6] -0.008 | [7] 0.045 | [8] 0.021 | [9] -0.003 | [10] -0.013 | [11] -0.018 | [12] 0.084 | [13] 0.021 | [14] -0.005 | [15] -0.014

GORASP1 (UniProt Q9BQQ3)
inactive: [1] 0.011 | [2] -0.02 | [3] -0.019 | [4] 0.034 | [5] 0.048 | [6] 0.034 | [7] -0.006 | [8] -0.071 | [9] 0.177 | [10] -0.11 | [11] -0.041 | [12] -0.01 | [13] 0.067 | [14] -0.018 | [15] -0.09

GGT1 (UniProt P19440)
inactive: [1] -0.016 | [2] 0.038 | [3] 0.072 | [4] -0.028 | [5] 0.023 | [6] 0.065 | [7] 0.111 | [8] 0.017 | [9] 0.007 | [10] 0.006 | [11] -0.026 | [12] 0.09 | [13] 0.004 | [14] -0.021 | [15] 0.001

GNE isoform 2 (UniProt Q9Y223)
active: [12] -0.443
inactive: [1] -0.013 | [2] -0.003 | [3] 0.003 | [4] -0.081 | [5] 0.025 | [6] -0.042 | [7] 0.008 | [8] 0.061 | [9] -0.008 | [10] -0.006 | [11] 0.056 | [13] 0.023 | [14] 0.012 | [15] 0.017

GPN2 (UniProt Q9H9Y4)
inactive: [1] -0.065 | [2] 0.046 | [3] 0.062 | [4] -0.009 | [5] -0.046 | [6] -0.022 | [7] 0.013 | [8] -0.008 | [9] 0.01 | [10] -0.034 | [11] 0.006 | [12] -0.093 | [13] 0.009 | [14] -0.062 | [15] 0.203

GPAA1 (UniProt O43292)
inactive: [1] -0.013 | [2] 0.007 | [3] -0.014 | [4] 0.032 | [5] 0.023 | [6] -0.057 | [7] -0.011 | [8] 0.019 | [9] -0.01 | [10] -0.089 | [11] 0.043 | [12] 0.046 | [13] -0.052 | [14] -0.013 | [15] -0.006

GOLGB1 (UniProt Q14789)
inactive: [1] -0.007 | [2] 0.024 | [3] -0.017 | [4] 0.006 | [5] 0.027 | [6] -0.022 | [7] -0.015 | [8] 0.002 | [9] 0.017 | [10] -0.019 | [11] 0.021 | [12] -0.094 | [13] 0.008 | [14] -0.014 | [15] 0

Two successive records from above, for reference:
GPAA1 (UniProt O43292)
inactive: [1] -0.013 | [2] 0.007 | [3] -0.014 | [4] 0.032 | [5] 0.023 | [6] -0.057 | [7] -0.011 | [8] 0.019 | [9] -0.01 | [10] -0.089 | [11] 0.043 | [12] 0.046 | [13] -0.052 | [14] -0.013 | [15] -0.006

GOLGB1 (UniProt Q14789)
inactive: [1] -0.007 | [2] 0.024 | [3] -0.017 | [4] 0.006 | [5] 0.027 | [6] -0.022 | [7] -0.015 | [8] 0.002 | [9] 0.017 | [10] -0.019 | [11] 0.021 | [12] -0.094 | [13] 0.008 | [14] -0.014 | [15] 0

Later entries.

GLMN (UniProt Q92990)
inactive: [1] -0.002 | [2] 0.002 | [3] 0.012 | [4] -0.01 | [5] 0.016 | [6] -0.023 | [7] 0.006 | [8] 0.022 | [9] 0.047 | [10] -0.009 | [11] -0.008 | [12] -0.179 | [13] 0.02 | [14] -0.031 | [15] 0.027

GNA11 (UniProt P29992)
inactive: [1] 0.003 | [2] -0.001 | [3] 0.021 | [4] -0.003 | [5] 0.039 | [6] 0.04 | [7] -0.009 | [8] -0.004 | [9] 0.022 | [10] 0.025 | [11] 0.026 | [12] 0.061 | [13] 0.003 | [14] -0.053 | [15] -0.004

GPALPP1 (UniProt Q8IXQ4)
inactive: [1] -0.05 | [2] -0.013 | [3] 0.041 | [4] 0.049 | [5] -0.042 | [6] 0.013 | [7] 0.022 | [8] 0 | [9] -0.009 | [10] -0.002 | [11] -0.009 | [12] 0.158 | [13] 0 | [14] 0.049 | [15] 0

— the supplement of paper PMC10849652
